Reference: PubChem BioAssay AID504834 (National Center for Advancing Translational Sciences (NCATS), 2011)
About 22,000 (6.9%) of roughly 320,000 compounds were called active. This list was built around the results that the source calls inconclusive (neither active nor inactive); the mix of calls is not that of the screen. The call rests on the fitted dose curve; in most records, active means well fitted inhibition curve with a large enough effect; inconclusive means small, poorly fitted or top-dose-only effect, or another doubt; inactive means no such curve, though single readings can be large or run the other way. A potency beside an inconclusive call is a rough fit, not a confirmed value.

Assay: Primary qHTS for delayed death inhibitors of the malarial parasite plastid, 96 hour incubation
Settings: P. falciparum luciferase reporter growth; series mostly up to 28.7 µM; activity change, negative = inhibition: at the top concentration
Outline: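 P. falciparum expressing integrated firefly luciferase grown in erythrocytes (2% hematocrit, 0.05% parasitemia final) with compounds for 96 hours at 37 C, 5% CO2. Growth inhibition read as loss of luminescence after adding luciferase detection reagent.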
On the % scale 0 is the no-effect control and ±100 the full control effect; potency means the concentration at half of the fitted maximal effect.

| Structure (SMILES) | Potency | activity change, negative = inhibition |
| --- | --- | --- |
| COc1ccc(NS(=O)(=O)c2cc(OCC(N)=O)c(C)cc2Cl)cc1 | active: 2.08 µM | – |
| Clc1ccc(C2[C@H]3CN(Cc4cccnc4)[C@H](c4ccccc4)C34CC2(c2cccnc2)C4)cn1 (some centres not stated) | active: 4.65 µM | – |
| CN1CCN(C(=O)C2CCCN(S(=O)(=O)c3ccc(Br)cc3)C2)CC1 (configuration not stated) | inconclusive: 18.5 µM [inhibitor, single point] | – |
| c1ccc(CN(Cc2ccco2)C(c2ccncc2)c2nnnn2C2CCCC2)cc1 (configuration not stated) | active: 10.4 µM | – |
| CCc1cccc(C)c1NC(=O)CCCN1C(=O)NC(C)(C)C1=O | inconclusive: 10.4 µM [inhibitor, single point] | – |
| COCCN(C(=S)Nc1ccc(C)cc1C)C(C)c1ccco1 (configuration not stated) | – | inactive: 7.15% |
| CCn1c(/C=C/Nc2ccccc2)[n+](CC)c2ccc(C(=O)OCC(F)(F)F)cc21 | inconclusive: 18.5 µM [inhibitor, single point] | – |
| COc1cc(OC)cc(C(=O)Nc2ccc(N(C)C)c3ccccc23)c1 | inconclusive: 9.28 µM [inhibitor, partial curve, poor fit] | – |
| O=C(c1ccco1)N1CCN(C(=O)c2cnn3cccnc23)CC1 | inconclusive: 10.4 µM [inhibitor, single point] | – |
| CCN(CCCNS(=O)(=O)c1ccc2c(c1)CCN2C(C)=O)c1cccc(C)c1 | inconclusive: 9.28 µM [inhibitor, partial curve] | – |
| CCc1cc(C(=O)OC)c(NC(=O)CN2CCN(C(=O)C3CCCO3)CC2)s1 (configuration not stated) | active: 0.657 µM | – |
| COc1ccc(-c2csc(NC(=O)COc3ccc(N(C)S(=O)(=O)c4ccc(C)cc4)cc3)n2)cc1 | inconclusive: 14.7 µM [inhibitor, partial curve, poor fit] | – |
| CCCC(=O)Nc1ccc(Br)c(Cl)c1 | inconclusive: 18.5 µM [inhibitor, single point] | – |
| C=CCNc1nc2c(c(=O)n(C)c(=O)n2C)n1CC(=C)C | inconclusive: 18.5 µM [inhibitor, single point] | – |
| COc1ccc(N2CCN(CCCNC(=O)C(=O)c3c(C)[nH]c4ccccc34)CC2)cc1 | inconclusive: 18.5 µM [inhibitor, single point] | – |
| Cc1ccc(NC(=O)CCS(=O)(=O)c2ccc(Br)cc2)nc1 | inconclusive: 18.5 µM [inhibitor, single point] | – |
| COc1ccc(NC(=O)CCS(=O)(=O)c2ccc(OC)cc2)cc1 | inconclusive: 11.7 µM [inhibitor, single point] | – |
| CN(Cc1cccc(F)c1)C(=O)Cc1ccc(S(=O)(=O)N2CCOCC2)s1 | inconclusive: 18.5 µM [inhibitor, single point] | – |
| Nc1ccc2oc3ccc(N)cc3c(=O)c2c1 | – | inactive: 139% |
| CCN(CC)c1ccc2cc(C(=O)Nc3ccc(-n4cnnn4)c(OC)c3)c(=O)oc2c1 | inconclusive: 1.04 µM [inhibitor, partial curve, poor fit] | – |
| O=C(Nc1ccc(Cl)cn1)C1CCCN(c2ncnc3c2nc2n3CCCCC2)C1 (configuration not stated) | inconclusive: 4.65 µM [inhibitor, partial curve] | – |
| CCCN(C(=O)Cc1nc(N)n[nH]1)C1(C(=O)Nc2ccccc2C)CCCCC1 | inconclusive: 11.7 µM [inhibitor, single point] | – |
| Cc1ccc(CSc2ccc(S(=O)(=O)N3CCOCC3)cn2)cc1 | inconclusive: 18.5 µM [inhibitor, single point] | – |

| Structure (SMILES) | Potency | activity change, negative = inhibition |
| --- | --- | --- |
| COc1ccc(S(=O)(=O)NCCc2c(C)nn(C)c2Oc2ccccc2)cc1 | inconclusive: 18.5 µM [inhibitor, single point] | – |
| O=C(Nc1ccn(-c2ccccc2)n1)c1ccc(Cl)cc1 | inconclusive: 0.928 µM [inhibitor, full curve] | – |
| Fc1ccc(NC(=S)Nc2ccccc2N2CCOCC2)cc1Cl | – | inactive: -28.6% |
| CCCS(=O)(=O)N1CCN(C(=O)c2ccc(-c3ccccc3)cc2)CC1 | inconclusive: 11.7 µM [inhibitor, single point] | – |
| C=CCSc1nc2ccccc2n1C(=O)/C=C/c1ccc(OC)c(OC)c1 | – | inactive: 26.6% |
| COc1cccc(COC(=O)c2cc(S(=O)(=O)N3CCCCC3)ccc2N2CCOCC2)c1OC | inconclusive: 10.4 µM [inhibitor, partial curve] | – |
| COc1cccc(/C=N/NC(N)=S)c1OCc1ccccc1Cl | inconclusive: 13.1 µM [inhibitor, partial curve, poor fit] | – |
| COC(=O)CCc1c(C)c(C(=O)c2cccc(OC)c2OC)c2ccccn12 | inconclusive: 18.5 µM [inhibitor, single point] | – |
| CCNC(=O)NC(=O)C(C)OC(=O)c1oc2ccc(OC)cc2c1C (configuration not stated) | inconclusive: 18.5 µM [inhibitor, single point] | – |
| COc1ccc(N2CCN(CCCNC(=O)CC3Oc4ccc(C)cc4NC3=O)CC2)cc1 (configuration not stated) | inconclusive: 7.38 µM [inhibitor, partial curve, poor fit] | – |
| Cc1ccc(C)c(OCC(=O)NNC(=O)CCN2CCN(c3ccccc3)CC2)c1 | inconclusive: 9.28 µM [inhibitor, single point] | – |
| Fc1cc(Br)ccc1NC(=S)Nc1cccnc1 | inconclusive: 2.33 µM [inhibitor, full curve, poor fit] | – |
| C=C(C)Cn1c(CN(C)Cc2ccccc2)nc2c1c(=O)n(C)c(=O)n2C | – | inactive: 0% |
| O=C(Nc1ccccc1-c1ccccc1)c1cccc(C(F)(F)F)c1 | inconclusive: 18.5 µM [inhibitor, single point] | – |
| COc1ccc(CCNC(=O)c2coc3ccccc3c2=O)cc1 | inconclusive: 18.5 µM [inhibitor, single point] | – |
| Cc1nn(-c2ccc(N3CCOCC3)nn2)c(C)c1CCC(=O)NCc1ccc(F)cc1 | inconclusive: 9.28 µM [inhibitor, partial curve] | – |
| O=C(c1cnn2c(C(F)(F)F)cc(-c3ccc(F)cc3)nc12)N1CCc2ccccc2C1 | inconclusive: 10.4 µM [inhibitor, single point] | – |
| COc1ccc(NC(=O)C2=C(C)Nc3ncnn3C2c2ccccc2C(F)(F)F)c(OC)c1 (configuration not stated) | – | inactive: 21.5% |
| Cn1c(=O)[nH]c(=O)c2c1nc(N1CCNCC1)n2Cc1cccc2ccccc12 | inconclusive: 1.47 µM [inhibitor, partial curve, poor fit] | – |
| O=C(CCC(=O)N1CCOc2ccccc21)Nc1ccc(F)cc1F | – | inactive: -8.83% |
| Cc1cccc(N2CCN(C(=O)CCS(=O)(=O)c3ccc(Br)cc3)CC2C)c1 (configuration not stated) | inconclusive: 10.4 µM [inhibitor, single point] | – |
| COc1ccc(C(=O)N2CCCc3ccccc32)cc1 | active: 0.262 µM | – |
| Brc1ccc(/C=N/Nc2ccc3ccccc3n2)cc1 | inconclusive: 18.5 µM [inhibitor, single point] | – |

By substructure: the entries above with fluorine

| Structure (SMILES) | Potency | activity change, negative = inhibition |
| --- | --- | --- |
| CCn1c(/C=C/Nc2ccccc2)[n+](CC)c2ccc(C(=O)OCC(F)(F)F)cc21 | inconclusive: 18.5 µM [inhibitor, single point] | – |
| CN(Cc1cccc(F)c1)C(=O)Cc1ccc(S(=O)(=O)N2CCOCC2)s1 | inconclusive: 18.5 µM [inhibitor, single point] | – |
| Fc1ccc(NC(=S)Nc2ccccc2N2CCOCC2)cc1Cl | – | inactive: -28.6% |
| Fc1cc(Br)ccc1NC(=S)Nc1cccnc1 | inconclusive: 2.33 µM [inhibitor, full curve, poor fit] | – |
| O=C(Nc1ccccc1-c1ccccc1)c1cccc(C(F)(F)F)c1 | inconclusive: 18.5 µM [inhibitor, single point] | – |
| Cc1nn(-c2ccc(N3CCOCC3)nn2)c(C)c1CCC(=O)NCc1ccc(F)cc1 | inconclusive: 9.28 µM [inhibitor, partial curve] | – |
| O=C(c1cnn2c(C(F)(F)F)cc(-c3ccc(F)cc3)nc12)N1CCc2ccccc2C1 | inconclusive: 10.4 µM [inhibitor, single point] | – |
| COc1ccc(NC(=O)C2=C(C)Nc3ncnn3C2c2ccccc2C(F)(F)F)c(OC)c1 (configuration not stated) | – | inactive: 21.5% |
| O=C(CCC(=O)N1CCOc2ccccc21)Nc1ccc(F)cc1F | – | inactive: -8.83% |

2 entries from above in a different format:
Structure (SMILES)	Potency	activity change, negative = inhibition
COc1ccc(N2CCN(CCCNC(=O)CC3Oc4ccc(C)cc4NC3=O)CC2)cc1 (configuration not stated)	inconclusive: 7.38 µM [inhibitor, partial curve, poor fit]	–
Cc1cccc(N2CCN(C(=O)CCS(=O)(=O)c3ccc(Br)cc3)CC2C)c1 (configuration not stated)	inconclusive: 10.4 µM [inhibitor, single point]	–

Going on with the list.

| Structure (SMILES) | Potency | activity change, negative = inhibition |
| --- | --- | --- |
| CC(=O)Nc1sc(C)c(C)c1CN1CCN(Cc2ccccc2)CC1 | active: 4.15 µM | – |
| COc1ccc(CCNC(=O)c2ccc(CNS(=O)(=O)c3cc(C)ccc3C)cc2)cc1OC | active: 5.22 µM | – |
| CCOc1ccc(CN(C)CC(=O)NNC(=O)c2ccc(Cl)cc2)cc1OC | inconclusive: 18.5 µM [inhibitor, single point] | – |
| C/C(=C/C(=O)Nc1cccc(F)c1)N1CCCC1 | – | inactive: 16.2% |
| O=C1CC(=C(c2ccccc2)c2ccccc2)C(=O)N1CCCN1CCN(c2cccc(Cl)c2)CC1 | – | inactive: 3.23% [at 5.75 µM] |
| COc1ccc(CN2C[C@H](C)[C@@H](CC(=O)NCc3ccccc3)C2=O)cc1 | inconclusive: 18.5 µM [inhibitor, single point] | – |
| Cc1c(NC(=O)c2ccco2)cccc1-c1nc2cccnc2s1 | inconclusive: 18.5 µM [inhibitor, single point] | – |
| C/C(CC(=O)Nc1ccccn1)=N\NC(=O)c1ccc([N+](=O)[O-])cc1Cl | inconclusive: 13.1 µM [inhibitor, partial curve] | – |
| CC(C)(C)OC(=O)N[C@@H](COCc1ccccc1)C(=O)N[C@@H](CO)[C@H](O)[C@@H]1C[C@@H]1C(=O)NC1CCCCC1 | inconclusive: 13.1 µM [inhibitor, partial curve, poor fit] | – |
| COc1cccc(C2=CC(=O)CC(C)(C)C2)c1OC | – | inactive: 34.7% |
| COc1ccc(C(=O)N=S2CCN(C(=O)c3ccc(Cl)cc3)CC2)cc1 | – | inactive: 48.3% |
| O=C1OC(c2ccc(Cl)cc2)=N/C1=C\c1cccnc1 | inconclusive: 0.0208 µM [inhibitor, full curve, poor fit] | – |
| CCCN(Cc1ccccc1)C(=S)Nc1cccc(C)c1C | inconclusive: 5.22 µM [inhibitor, partial curve, poor fit] | – |
| O=[N+]([O-])c1ccccc1S(=O)(=O)Nc1ccc(S(=O)(=O)N2CCOCC2)cc1 | inconclusive: 10.4 µM [inhibitor, partial curve] | – |
| COc1ccc(S(=O)(=O)NCC2CCCO2)c(Cl)c1Cl (configuration not stated) | inconclusive: 18.5 µM [inhibitor, single point] | – |
| CCC(C)(C)n1nnnc1C(c1cccnc1)N1CCCc2ccccc21 (configuration not stated) | – | inactive: -3.84% |
| COc1ccc(N(CC(=O)N2CCN(C)CC2)S(=O)(=O)c2ccccc2)cc1 | – | inactive: 38.6% |
| CN(c1ccc(F)cc1)S(=O)(=O)c1ccc(Cl)c(C(=O)NCC(c2ccco2)N2CCCCC2)c1 (configuration not stated) | inconclusive: 11.7 µM [inhibitor, single point] | – |
| CC(C)(O)/C=C1/Oc2ccccc2C1N1CCCCC1 (configuration not stated) | – | inactive: -11.4% |
| NC(=O)c1c(NC(=O)c2c(F)cccc2F)sc2c1CCN(Cc1ccccc1)C2 | – | inactive: -9.54% |
| CC12CCC(=O)N1C(C(=O)N1CCN(S(=O)(=O)c3ccc(Br)cc3Cl)CC1)CS2 (configuration not stated) | inconclusive: 9.28 µM [inhibitor, partial curve, poor fit] | – |
